Results published in publication PMC4489720.

Amino acid sequences for entries named in this document (tags omitted). A change or cut given only in a name is not applied to a line headed by its entry.
UniProt I1X0L2: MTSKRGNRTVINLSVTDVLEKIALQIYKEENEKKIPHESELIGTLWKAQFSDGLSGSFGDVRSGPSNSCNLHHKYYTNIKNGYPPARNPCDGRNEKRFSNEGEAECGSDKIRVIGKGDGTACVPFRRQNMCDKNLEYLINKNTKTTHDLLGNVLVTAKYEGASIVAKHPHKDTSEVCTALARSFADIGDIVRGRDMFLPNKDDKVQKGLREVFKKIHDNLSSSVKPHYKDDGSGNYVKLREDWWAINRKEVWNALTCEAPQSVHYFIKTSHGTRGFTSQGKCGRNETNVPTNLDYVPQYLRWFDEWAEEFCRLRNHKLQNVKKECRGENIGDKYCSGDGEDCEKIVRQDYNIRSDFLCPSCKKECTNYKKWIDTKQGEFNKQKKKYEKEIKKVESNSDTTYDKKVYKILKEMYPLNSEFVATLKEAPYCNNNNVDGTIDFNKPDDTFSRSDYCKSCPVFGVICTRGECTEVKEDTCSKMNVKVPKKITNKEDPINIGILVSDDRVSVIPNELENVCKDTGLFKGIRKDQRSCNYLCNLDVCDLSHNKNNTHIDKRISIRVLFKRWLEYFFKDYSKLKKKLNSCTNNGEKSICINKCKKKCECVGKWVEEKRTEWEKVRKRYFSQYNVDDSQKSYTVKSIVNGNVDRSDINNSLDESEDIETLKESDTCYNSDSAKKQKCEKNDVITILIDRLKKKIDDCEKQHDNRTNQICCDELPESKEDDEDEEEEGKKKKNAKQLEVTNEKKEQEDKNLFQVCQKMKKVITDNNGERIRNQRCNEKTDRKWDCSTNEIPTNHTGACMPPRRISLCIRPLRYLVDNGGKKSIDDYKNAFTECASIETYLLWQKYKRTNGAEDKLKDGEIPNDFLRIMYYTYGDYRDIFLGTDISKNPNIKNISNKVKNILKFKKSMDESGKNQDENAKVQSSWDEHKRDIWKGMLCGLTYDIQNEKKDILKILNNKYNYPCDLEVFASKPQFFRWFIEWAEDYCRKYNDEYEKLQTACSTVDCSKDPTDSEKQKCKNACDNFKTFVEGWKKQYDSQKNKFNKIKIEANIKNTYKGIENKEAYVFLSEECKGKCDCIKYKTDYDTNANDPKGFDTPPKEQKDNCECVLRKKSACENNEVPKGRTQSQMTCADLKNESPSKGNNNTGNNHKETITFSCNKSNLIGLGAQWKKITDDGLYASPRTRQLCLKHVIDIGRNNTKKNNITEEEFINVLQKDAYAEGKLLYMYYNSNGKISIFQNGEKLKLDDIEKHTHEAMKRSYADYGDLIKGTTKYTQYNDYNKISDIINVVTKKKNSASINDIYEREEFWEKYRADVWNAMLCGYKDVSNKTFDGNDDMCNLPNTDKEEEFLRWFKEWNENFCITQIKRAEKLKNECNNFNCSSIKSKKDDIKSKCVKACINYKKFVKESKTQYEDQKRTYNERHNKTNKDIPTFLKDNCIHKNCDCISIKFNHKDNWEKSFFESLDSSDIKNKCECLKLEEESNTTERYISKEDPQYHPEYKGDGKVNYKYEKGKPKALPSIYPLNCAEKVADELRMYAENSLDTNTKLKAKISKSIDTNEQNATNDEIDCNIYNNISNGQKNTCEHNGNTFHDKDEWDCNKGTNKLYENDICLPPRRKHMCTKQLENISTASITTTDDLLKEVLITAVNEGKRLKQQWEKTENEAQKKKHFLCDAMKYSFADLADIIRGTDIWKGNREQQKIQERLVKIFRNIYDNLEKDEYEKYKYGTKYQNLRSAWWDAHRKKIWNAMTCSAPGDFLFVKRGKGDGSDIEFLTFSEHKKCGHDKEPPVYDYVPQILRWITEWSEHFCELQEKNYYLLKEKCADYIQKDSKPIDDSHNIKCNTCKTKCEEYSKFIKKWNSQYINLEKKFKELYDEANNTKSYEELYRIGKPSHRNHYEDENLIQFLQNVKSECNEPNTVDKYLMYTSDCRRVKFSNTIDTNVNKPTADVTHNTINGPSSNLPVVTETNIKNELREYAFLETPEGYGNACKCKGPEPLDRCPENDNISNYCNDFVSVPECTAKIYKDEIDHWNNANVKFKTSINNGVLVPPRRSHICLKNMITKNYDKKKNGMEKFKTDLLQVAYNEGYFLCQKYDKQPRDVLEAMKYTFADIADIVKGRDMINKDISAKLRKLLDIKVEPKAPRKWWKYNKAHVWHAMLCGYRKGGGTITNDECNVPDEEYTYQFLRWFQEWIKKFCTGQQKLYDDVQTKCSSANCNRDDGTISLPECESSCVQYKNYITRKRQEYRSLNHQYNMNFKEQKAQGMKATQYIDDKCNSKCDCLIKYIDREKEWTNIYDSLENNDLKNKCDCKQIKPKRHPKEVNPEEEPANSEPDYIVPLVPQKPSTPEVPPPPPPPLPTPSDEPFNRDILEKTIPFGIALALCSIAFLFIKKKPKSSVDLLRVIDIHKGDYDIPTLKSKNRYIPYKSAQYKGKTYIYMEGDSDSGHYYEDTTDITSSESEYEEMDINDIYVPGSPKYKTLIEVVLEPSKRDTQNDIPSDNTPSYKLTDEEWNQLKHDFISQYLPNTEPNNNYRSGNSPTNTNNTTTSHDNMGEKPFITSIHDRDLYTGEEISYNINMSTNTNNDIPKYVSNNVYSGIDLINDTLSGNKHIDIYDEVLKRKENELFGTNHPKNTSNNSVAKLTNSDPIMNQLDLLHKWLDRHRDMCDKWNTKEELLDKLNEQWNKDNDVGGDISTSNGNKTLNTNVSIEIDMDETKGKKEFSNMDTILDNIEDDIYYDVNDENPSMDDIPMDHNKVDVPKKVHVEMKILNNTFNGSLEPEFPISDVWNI

Tests used:
[1] = target: recombinant HB3VAR06 single-domain construct DBLξ2 (D8) (P. falciparum HB3); experiment: ELISA; MaxiSorp plates coated with recombinant PfEMP1 constructs (18 nM, overnight, 4°C); blocked in TSM buffer with 1% Ig-free BSA; α2M or α2M-MA (10 nM; titrated in Fig 2A); detected with anti-α2M antibodies; both purified
[2] = target: PfEMP1 protein VarO on infected erythrocytes (P. falciparum); experiment: flow cytometry on cells; late-stage infected erythrocytes (1x10^5) incubated 30 min at room temperature with α2M or α2M-MA (10 nM; titrated in Fig 2B) or IgM; detected with anti-α2M or anti-human IgM antibodies; in competition assays α2M and IgM added in separate steps; only the binder purified
[3] = target: native HB3VAR06 on infected erythrocytes (P. falciparum HB3); experiment: as above
[4] = target: PfEMP1 TM284var1 on infected erythrocytes (P. falciparum) (UniProt I1X0L2); experiment: as above
[5] = target: PfEMP1 protein PF13_0003 on infected erythrocytes (P. falciparum 3D7); experiment: as above
[6] = target: native IT4VAR04 on infected erythrocytes (P. falciparum IT4); experiment: as above

B1: α2-macroglobulin (α2M), native (protein, UniProt P01023 24-1474)
chain: SVSGKPQYMVLVPSLLHTETTEKGCVLLSYLNETVTVSASLESVRGNRSLFTDLEAENDVLHCVAFAVPKSSSNEEVMFLTVQVKGPTQEFKKRTTVMVKNEDSLVFVQTDKSIYKPGQTVKFRVVSMDENFHPLNELIPLVYIQDPKGNRIAQWQSFQLEGGLKQFSFPLSSEPFQGSYKVVVQKKSGGRTEHPFTVEEFVLPKFEVQVTVPKIITILEEEMNVSVCGLYTYGKPVPGHVTVSICRKYSDASDCHGEDSQAFCEKFSGQLNSHGCFYQQVKTKVFQLKRKEYEMKLHTEAQIQEEGTVVELTGRQSSEITRTITKLSFVKVDSHFRQGIPFFGQVRLVDGKGVPIPNKVIFIRGNEANYYSNATTDEHGLVQFSINTTNVMGTSLTVRVNYKDRSPCYGYQWVSEEHEEAHHTAYLVFSPSKSFVHLEPMSHELPCGHTQTVQAHYILNGGTLLGLKKLSFYYLIMAKGGIVRTGTHGLLVKQEDMKGHFSISIPVKSDIAPVARLLIYAVLPTGDVIGDSAKYDVENCLANKVDLSFSPSQSLPASHAHLRVTAAPQSVCALRAVDQSVLLMKPDAELSASSVYNLLPEKDLTGFPGPLNDQDNEDCINRHNVYINGITYTPVSSTNEKDMYSFLEDMGLKAFTNSKIRKPKMCPQLQQYEMHGPEGLRVGFYESDVMGRGHARLVHVEEPHTETVRKYFPETWIWDLVVVNSAGVAEVGVTVPDTITEWKAGAFCLSEDAGLGISSTASLRAFQPFFVELTMPYSVIRGEAFTLKATVLNYLPKCIRVSVQLEASPAFLAVPVEKEQAPHCICANGRQTVSWAVTPKSLGNVNFTVSAEALESQELCGTEVPSVPEHGRKDTVIKPLLVEPEGLEKETTFNSLLCPSGGEVSEELSLKLPPNVVEESARASVSVLGDILGSAMQNTQNLLQMPYGCGEQNMVLFAPNIYVLDYLNETQQLTPEIKSKAIGYLNTGYQRQLNYKHYDGSYSTFGERYGRNQGNTWLTAFVLKTFAQARAYIFIDEAHITQALIWLSQRQKDNGCFRSSGSLLNNAIKGGVEDEVTLSAYITIALLEIPLTVTHPVVRNALFCLESAWKTAQEGDHGSHVYTKALLAYAFALAGNQDKRKEVLKSLNEEAVKKDNSVHWERPQKPKAPVGHFYEPQAPSAEVEMTSYVLLAYLTAQPAPTSEDLTSATNIVKWITKQQNAQGGFSSTQDTVVALHALSKYGAATFTRTGKAAQVTIQSSGTFSSKFQVDNNNRLLLQQVSLPELPGEYSMKVTGEGCVYLQTSLKYNILPEKEEFPFALGVQTLPQTCDEPKAHTSFQISLSVSYTGSRSASNMAIVDVKMVSGFIPLKPTVKMLERSNHVSRTEVSSNHVLIYLDKVSNQTLSLFFTVLQDVPVRDLKPAIVKVYDYYETDEFAIAEYNAPCSKDLGNA
binding [1]: binds | binding [2]: binds | binding [3]: binds | binding [4]: binds | binding [5]: binds | binding [6]: no binding (tested: 10 nM)

No constants are given. Whether binding was seen depends on the method and setting. For part of these data: Binding can be weak; no strength is given.
